The other results are listed elsewhere or left out.

Sequences of proteins named here, by UniProt entry; tags and fusion partners are left off.
UniProt Q0JBA9, entry or part of it: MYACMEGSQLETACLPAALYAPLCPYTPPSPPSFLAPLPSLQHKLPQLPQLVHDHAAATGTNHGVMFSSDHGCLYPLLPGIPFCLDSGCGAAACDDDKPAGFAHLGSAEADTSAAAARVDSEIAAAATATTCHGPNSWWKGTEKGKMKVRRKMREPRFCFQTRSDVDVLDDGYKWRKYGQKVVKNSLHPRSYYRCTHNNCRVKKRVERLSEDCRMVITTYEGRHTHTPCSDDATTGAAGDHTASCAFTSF

The assay has as its target OsWRKY34 (Oryza sativa, UniProt Q0JBA9 1-250). The assay is described as follows: protein-binding microarray (RPBM); PBS, 2% BSA, 51.3 ng/ul salmon testes DNA, 50 uM zinc acetate, 200 nM TF, 25 C, 1 h; high values mean tight binding. Conditions: protein: recombinant; tags: N-terminal polyhistidine and DsRed monomer fusion (pET32a); label: CyDye5-dUTP incorporated in the synthesized complementary strand; 3' TTTTT single-stranded linker to array surface; dsDNA, one strand shown. In short, it runs like this:
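In PBS with 2% BSA, salmon testes DNA and 50 µM zinc acetate, 200 nM protein was incubated on a custom Agilent array at 25 °C for 1 h and then washed off. The array had been made double-stranded by primer extension with Cy5-dUTP and blocked with 2% BSA. The proteins were transcription factors fused N-terminally to polyhistidine and DsRed, expressed in E. coli BL21-CodonPlus and purified on Ni–NTA. The binding signal is per-feature fluorescence intensity (arbitrary units) from an Axon 4000B scanner.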
For “CGTGGTCTCTAATTTGTTTTGTTCGTTCTCCTTTCTTGTTCGGAGTCACCTAGTGCAG”, the binding signal is 15000 fluorescence intensity (a.u.).

Consider “ACAACCGCACATACGCCACGGCCCACTCCTCCTTCTCGCCCGGAGTCACCTAGTGCAG”, for which the binding signal was 9350 fluorescence intensity (a.u.). In the case of “TTATTTTGGTTGTATTGACCGACACGAGCCTTTTGTTGACCGGAGTCACCTAGTGCAG”, the binding signal is 8720 fluorescence intensity (a.u.). For the sequence “TGTATAGGCGGTCCCAGTTTGCATTGGTTTTAGTAGTTGACGGAGTCACCTAGTGCAG”, the binding signal is 9200 fluorescence intensity (a.u.). As for “TCATAGACATTTTTGTAGTTTTGTCAGCAATTCTTTTATTCGGAGTCACCTAGTGCAG”, the binding signal is 8080 fluorescence intensity (a.u.). To “GTCTCCAAGTTTTTTTTTTCTCTCTCTCTTTGTCGCCGTTCGGAGTCACCTAGTGCAG” belongs 8130 fluorescence intensity (a.u.); to “CCCTTTTATCCTCAGTGGCTTGCCTGGTCATATTTCCATACGGAGTCACCTAGTGCAG”, 10600 fluorescence intensity (a.u.); to “CGTTGTACGTCCAATCTTGACTGGTGCCGCGGCACCGCTGCGGAGTCACCTAGTGCAG”, 8160 fluorescence intensity (a.u.). Consider “TTCTTATCCACACTGCCCGAGTCATCGTTCTTATCCATTCCGGAGTCACCTAGTGCAG”, for which the binding signal was 10000 fluorescence intensity (a.u.). Regarding “CTTGCACCATCACTTCATCCTCCCGGCGTGCTCGCGTGGCCGGAGTCACCTAGTGCAG”, the binding signal was 9310 fluorescence intensity (a.u.). For “ACCTTGGACAACTGACTTCTCTACAGACATTAACCTTTTTCGGAGTCACCTAGTGCAG”, the binding signal is 8730 fluorescence intensity (a.u.). Regarding “TACATACGGCAGTCGTTGACCATATGAGAGCATTATCTCACGGAGTCACCTAGTGCAG”, the binding signal is 10100 fluorescence intensity (a.u.). In the case of “ACAATTAATATTTTTGCTGGTACTGTCAGTTGTTTGTTTTCGGAGTCACCTAGTGCAG”, the binding signal was 8530 fluorescence intensity (a.u.). Next, “AGCCATCTTAAGTTAGGAACAGTTTCTTTTTTTAGAACTACGGAGTCACCTAGTGCAG”: 8290 fluorescence intensity (a.u.); “TCTGTATATATTACTACTTGCGTTTCTCTTTCTTTCTTCCCGGAGTCACCTAGTGCAG”: 11000 fluorescence intensity (a.u.); “CCACCACTCCTCGTCCCCTCCTCCACTTCCACTTCCACACCGGAGTCACCTAGTGCAG”: 9550 fluorescence intensity (a.u.).

Consider “TCCCTTCAAATATTGTTTTTCTTTTAACACTCAATCTCTCCGGAGTCACCTAGTGCAG”, for which the binding signal is 8940 fluorescence intensity (a.u.). As for “AGGACTTGGTAAGGTAGGTAGAAGTAGTATCATGTTTACTCGGAGTCACCTAGTGCAG”, the binding signal was 8080 fluorescence intensity (a.u.). For the sequence “CCACCCTTTTTCTCTGCTTCCAGTGTACGTTTTCGAATAACGGAGTCACCTAGTGCAG”, the binding signal is 9880 fluorescence intensity (a.u.). Take “ACTGCTCGATTAATTGGTACTGATACTGTCCGCTCCATGACGGAGTCACCTAGTGCAG”: the binding signal is 9520 fluorescence intensity (a.u.). With “TTTATGCTTTCAGTAGAAGTGTATTGTGGTTAGGGTTTTACGGAGTCACCTAGTGCAG”, the binding signal was 10200 fluorescence intensity (a.u.).

Consider “ACTGTAAAATCACAAGTACAGATCTATCTAAAATCACTTTCGGAGTCACCTAGTGCAG”, for which the binding signal is 8490 fluorescence intensity (a.u.). For “GAGCATATTTATTTACATTATTTTCATACCATATTATTTTCGGAGTCACCTAGTGCAG”, the binding signal was 10800 fluorescence intensity (a.u.). In the case of “CACTTTGCATGTTATAATTGGGTGGGTAGCGGCCGACCTCCGGAGTCACCTAGTGCAG”, the binding signal was 15000 fluorescence intensity (a.u.). For “GAACAGGTTAACAAATTTGTCTGCACTTTTTGTCTATTTTCGGAGTCACCTAGTGCAG”, the binding signal is 9870 fluorescence intensity (a.u.). Next, “GTCCTTGACGCCCTGCACGTAGCTGGCCGCCTTCTTGTCCCGGAGTCACCTAGTGCAG”: 10400 fluorescence intensity (a.u.). “CTCGATTACCTGCCTAGTGGCCGCAATTATTGGCCCTTAACGGAGTCACCTAGTGCAG”: the binding signal is 11100 fluorescence intensity (a.u.). On to “CATACATGCATATAGACCATTAACTATGATCTCTTCTCCACGGAGTCACCTAGTGCAG”, for which the binding signal is 8180 fluorescence intensity (a.u.). Regarding “TGTTTTTTCATTAATCTACATTTTCTACTTCTAATGAATCCGGAGTCACCTAGTGCAG”, the binding signal is 8060 fluorescence intensity (a.u.).

As to “ATTCAAATGGCCATACTGTTCTCTTGCCATCCTCTACCTGCGGAGTCACCTAGTGCAG”, the binding signal was 9870 fluorescence intensity (a.u.). As for “CTCGATGTTTCCGGCCCAACCTTTGGCCCGCGGAGCACCGCGGAGTCACCTAGTGCAG”, the binding signal was 8110 fluorescence intensity (a.u.). To “GGTGTGTGGCCGGTCTGACCGGCAGAGTCCGAGCCTGAGTCGGAGTCACCTAGTGCAG” belongs 8580 fluorescence intensity (a.u.); to “CCTCTCTATACACCCTCCCACTTGCTCCATTCCTTTCTAACGGAGTCACCTAGTGCAG”, 8550 fluorescence intensity (a.u.); to “TATGGCTCTTTTCGGCCGTGTAGGTGGTGGTATTTATACACGGAGTCACCTAGTGCAG”, 9010 fluorescence intensity (a.u.).

“GGAGGAGAGGGGAGGGGTGCGTTTTGAGACTTAGAAAAAACGGAGTCACCTAGTGCAG”: the binding signal was 10000 fluorescence intensity (a.u.). To “TCCCGCCGGCCGCCCAGATCCAACGGCTCACATCCCATCCCGGAGTCACCTAGTGCAG” belongs 8630 fluorescence intensity (a.u.); to “TACTTAATCTGATATTATCTAGCTATTTTACATGTTATTTCGGAGTCACCTAGTGCAG”, 8160 fluorescence intensity (a.u.). “GTCACTCTTTCACTCTCACTCTTTCACTTAACGACTTAGGCGGAGTCACCTAGTGCAG”: the binding signal is 9070 fluorescence intensity (a.u.). For the sequence “TCCATTTCCTTGTTTGGTTGGGTGGATGAGAATGGATTGACGGAGTCACCTAGTGCAG”, the binding signal is 9010 fluorescence intensity (a.u.). Next, “CGCCGAGCATTTTAAGTATCCTGTCTCTGTCTCCTCGCTTCGGAGTCACCTAGTGCAG”: 12000 fluorescence intensity (a.u.); “TAGTAGGGTTAGGGTTTTCGTGGTGGGCGCCGCCGCCATGCGGAGTCACCTAGTGCAG”: 9130 fluorescence intensity (a.u.). Regarding “TCAAAAAGTGGCGAGCCTTTTCCCCTCCGGTCTCCGCCTCCGGAGTCACCTAGTGCAG”, the binding signal is 15400 fluorescence intensity (a.u.).
